Our source for the binding values is US20260055188A1.

By UniProt entry, the sequences of proteins in these tests, tags left out. Where a name states a change or a piece, a line headed by the entry shows the natural chain unless it says otherwise. Chains listed by the source or under a name are the forms on record and can include a tag or linker.
Human-B7H3 His (manufacturer: Acro, CAT: TB73-H52E2) (Q5ZPR3, form named): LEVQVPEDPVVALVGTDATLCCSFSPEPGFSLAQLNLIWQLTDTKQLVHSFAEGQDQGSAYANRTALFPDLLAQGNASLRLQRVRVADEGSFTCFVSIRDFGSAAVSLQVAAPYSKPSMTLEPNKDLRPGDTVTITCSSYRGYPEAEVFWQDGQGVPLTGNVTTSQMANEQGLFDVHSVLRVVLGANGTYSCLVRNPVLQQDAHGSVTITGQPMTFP

This assay deals with Human-B7H3 His (manufacturer: Acro, CAT: TB73-H52E2) (human) (UniProt Q5ZPR3). In words: ELISA: Human-B7H3 His coated (0.3 µg/mL), antibody titrated, goat anti-human IgG Fc detection, OD450 (Example 3). (In general: In an ELISA, binding on a coated surface is turned into a signal by an enzyme label.)

No constants are given. Whether binding was seen depends on the method and setting. Some entries that bind do so weakly or less than the wild type.

B1: Positive Control (antibody, V domains shown)
VH: QVQLQQSGAELVKPGASVKLSCKASGYTFTNYDINWVRQRPEQGLEWIGWIFPGDGSTQYNEKFKGKATLTTDTSSSTAYMQLSRLTSEDSAVYFCARQTTATWFAYWGQGTLVTVSA
VL: DIVMTQSPATLSVTPGDRVSLSCRASQSISDYLHWYQQKSHESPRLLIKYASQSISGIPSRFSGSGSGSDFTLSINSVEPEDVGVYYCQNGHSFPLTFGAGTKLELK
For the molecule B1, the binding result is on record as “binds”.
